PubChem BioAssay AID1259405 – NCATS | 2018

- Purpose: 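Knock-downs that lift recombinant protein yield in hamster ovary cells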 (primary screen)
- System: Chinese hamster CHO-K1 ovary cells with stable secreted eGFP expression
- Reagent: single siRNA against mouse genes, 0.8 pmol siRNA per well (2 µl of 400 nM stock)
- Time to read-out: 3 days
- Measured: 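Per-well intracellular GFP measured by laser scanning cytometry, plus viability from ATP luminescence, each relative to plate median of non-targeting control wells, in %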
- Direction: GFP, % of control: higher = more GFP per well, higher productivity; viability (ATP), % of control: higher = more viable cells (more ATP)
- Hit rule: 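a knock-down is called active if GFP reaches 120% or more of non-targeting control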
This is a random part of about 50,000 reagents. About 4,000 of all reagents (8%) were called active. 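Mouse siRNA library applied to hamster cells; one well for each siRNA.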 The numbers tell different reagents against one gene apart. No sequences are given here.

Depletion of Tnfaip8l3 (tumor necrosis factor, alpha-induced protein 8-like 3) #1 resulted in: GFP, % of control 65.5; viability (ATP), % of control 50.7; inactive.
Against Tnfaip8l3 (tumor necrosis factor, alpha-induced protein 8-like 3) #2 the deposit lists GFP, % of control 83.8; viability (ATP), % of control 108; inactive.
Against Tnfaip8l3 (tumor necrosis factor, alpha-induced protein 8-like 3) #3 the deposit lists GFP, % of control 118; viability (ATP), % of control 133; inactive.
Silencing of Dvl3 (dishevelled segment polarity protein 3) #1 resulted in: GFP, % of control 85.2; viability (ATP), % of control 80.7; inactive.
Depletion of Dvl3 (dishevelled segment polarity protein 3) #2 came out at: GFP, % of control 63.8; viability (ATP), % of control 65.9; inactive.
For Stab1 (stabilin 1) #1, the entry reads GFP, % of control 95; viability (ATP), % of control 121; inactive.
After knock-down of Stab1 (stabilin 1) #2, the screen gave GFP, % of control 66.8; viability (ATP), % of control 62.9; inactive.
For Arglu1 (arginine and glutamate rich 1) #1, the values are GFP, % of control 50.9; viability (ATP), % of control 17.8; inactive.
Silencing of Arglu1 (arginine and glutamate rich 1) #2 came out at: GFP, % of control 65.4; viability (ATP), % of control 68.4; inactive.
After knock-down of Arglu1 (arginine and glutamate rich 1) #3, the record shows GFP, % of control 98.7; viability (ATP), % of control 110; inactive.
Crkl (Crk like proto-oncogene, adaptor protein) #1 showed GFP, % of control 65.9; viability (ATP), % of control 86.7; inactive.
Crkl (Crk like proto-oncogene, adaptor protein) #2 gave GFP, % of control 71.6; viability (ATP), % of control 75.1; inactive.
Silencing of Crkl (Crk like proto-oncogene, adaptor protein) #3 came out at: GFP, % of control 107; viability (ATP), % of control 138; inactive.
For Prl8a6 (prolactin family 8, subfamily a, member 6) #1 the deposit lists GFP, % of control 51.7; viability (ATP), % of control 81.8; inactive.
Knock-down of Prl8a6 (prolactin family 8, subfamily a, member 6) #2 resulted in: GFP, % of control 67.6; viability (ATP), % of control 56.3; inactive.
Prl8a6 (prolactin family 8, subfamily a, member 6) #3 scored GFP, % of control 66.1; viability (ATP), % of control 73.8; inactive.
Against Clns1a (chloride channel, nucleotide-sensitive, 1A) #1, the values are GFP, % of control 65.6; viability (ATP), % of control 58.4; inactive.
Clns1a (chloride channel, nucleotide-sensitive, 1A) #2 scored GFP, % of control 36.2; viability (ATP), % of control 26.4; inactive.
For Clns1a (chloride channel, nucleotide-sensitive, 1A) #3 the deposit lists GFP, % of control 81; viability (ATP), % of control 91.6; inactive.
Against Madd (MAP-kinase activating death domain) #1, the values are GFP, % of control 58.5; viability (ATP), % of control 50.3; inactive.
Against Madd (MAP-kinase activating death domain) #2 the deposit lists GFP, % of control 73.1; viability (ATP), % of control 83.4; inactive.
For Madd (MAP-kinase activating death domain) #3, the entry reads GFP, % of control 86; viability (ATP), % of control 52.3; inactive.
With knock-down of Pard3 (par-3 family cell polarity regulator) #1, the record shows GFP, % of control 54.3; viability (ATP), % of control 78.7; inactive.
Pard3 (par-3 family cell polarity regulator) #2 showed GFP, % of control 102; viability (ATP), % of control 108; inactive.
Depletion of Pard3 (par-3 family cell polarity regulator) #3 resulted in: GFP, % of control 71.9; viability (ATP), % of control 141; inactive.
Silencing of D830039M14Rik (RIKEN cDNA D830039M14 gene) #1 resulted in: GFP, % of control 77.8; viability (ATP), % of control 84.6; inactive.
Against D830039M14Rik (RIKEN cDNA D830039M14 gene) #2, the entry reads GFP, % of control 107; viability (ATP), % of control 104; inactive.
Knock-down of D830039M14Rik (RIKEN cDNA D830039M14 gene) #3 gave: GFP, % of control 73.5; viability (ATP), % of control 94.3; inactive.
After knock-down of Plpp6 (phospholipid phosphatase 6) #1 the results were GFP, % of control 64.5; viability (ATP), % of control 77.5; inactive.
Silencing of Plpp6 (phospholipid phosphatase 6) #2 gave: GFP, % of control 100; viability (ATP), % of control 66.4; inactive.
Plpp6 (phospholipid phosphatase 6) #3 gave GFP, % of control 64.3; viability (ATP), % of control 100; inactive.
After knock-down of Fbxw11 (F-box and WD-40 domain protein 11) #1, the screen gave GFP, % of control 73.2; viability (ATP), % of control 72.5; inactive.
Knock-down of Fbxw11 (F-box and WD-40 domain protein 11) #2 came out at: GFP, % of control 87; viability (ATP), % of control 71.8; inactive.
Knock-down of Fbxw11 (F-box and WD-40 domain protein 11) #3 gave: GFP, % of control 70.1; viability (ATP), % of control 78.7; inactive.
Silencing of Prkab2 (protein kinase, AMP-activated, beta 2 non-catalytic subunit) #1 came out at: GFP, % of control 63.2; viability (ATP), % of control 61.7; inactive.
For Prkab2 (protein kinase, AMP-activated, beta 2 non-catalytic subunit) #2, the entry reads GFP, % of control 82.2; viability (ATP), % of control 91.5; inactive.

Sorted by “viability (ATP), % of control” (descending): 8 of the entries above.
Crkl (Crk like proto-oncogene, adaptor protein) #3 — GFP, % of control: 107; viability (ATP), % of control: 138; Outcome: inactive
Arglu1 (arginine and glutamate rich 1) #3 — GFP, % of control: 98.7; viability (ATP), % of control: 110; Outcome: inactive
Crkl (Crk like proto-oncogene, adaptor protein) #1 — GFP, % of control: 65.9; viability (ATP), % of control: 86.7; Outcome: inactive
Prl8a6 (prolactin family 8, subfamily a, member 6) #1 — GFP, % of control: 51.7; viability (ATP), % of control: 81.8; Outcome: inactive
Crkl (Crk like proto-oncogene, adaptor protein) #2 — GFP, % of control: 71.6; viability (ATP), % of control: 75.1; Outcome: inactive
Prl8a6 (prolactin family 8, subfamily a, member 6) #3 — GFP, % of control: 66.1; viability (ATP), % of control: 73.8; Outcome: inactive
Clns1a (chloride channel, nucleotide-sensitive, 1A) #1 — GFP, % of control: 65.6; viability (ATP), % of control: 58.4; Outcome: inactive
Prl8a6 (prolactin family 8, subfamily a, member 6) #2 — GFP, % of control: 67.6; viability (ATP), % of control: 56.3; Outcome: inactive

The listing continues:
Depletion of Clec4a4 (C-type lectin domain family 4, member a4) #1 came out at: GFP, % of control 18.6; viability (ATP), % of control 25.5; inactive.
For Clec4a4 (C-type lectin domain family 4, member a4) #2 the deposit lists GFP, % of control 76.9; viability (ATP), % of control 54.3; inactive.
Against Clec4a4 (C-type lectin domain family 4, member a4) #3, the values are GFP, % of control 34; viability (ATP), % of control 53.4; inactive.
Pfdn2 (prefoldin 2) #1 gave GFP, % of control 87.9; viability (ATP), % of control 38.4; inactive.
Depletion of Pfdn2 (prefoldin 2) #2 came out at: GFP, % of control 79.4; viability (ATP), % of control 74.9; inactive.
Knock-down of Pfdn2 (prefoldin 2) #3 resulted in: GFP, % of control 75.1; viability (ATP), % of control 90.7; inactive.
After knock-down of Tmem33 (transmembrane protein 33) #1 the results were GFP, % of control 98.2; viability (ATP), % of control 113; inactive.
Against Tmem33 (transmembrane protein 33) #2 the deposit lists GFP, % of control 75; viability (ATP), % of control 90.8; inactive.
For Tmem33 (transmembrane protein 33) #3 the deposit lists GFP, % of control 83.6; viability (ATP), % of control 74.1; inactive.
Silencing of Or4p19 (olfactory receptor family 4 subfamily P member 19) #1 came out at: GFP, % of control 70.7; viability (ATP), % of control 37; inactive.
Or4p19 (olfactory receptor family 4 subfamily P member 19) #2 scored GFP, % of control 20.4; viability (ATP), % of control 67.5; inactive.
For Or4p19 (olfactory receptor family 4 subfamily P member 19) #3 the deposit lists GFP, % of control 31; viability (ATP), % of control 73.9; inactive.
Depletion of Ccdc102a (coiled-coil domain containing 102A) #1 came out at: GFP, % of control 74; viability (ATP), % of control 87.3; inactive.
Ccdc102a (coiled-coil domain containing 102A) #2 gave GFP, % of control 79.8; viability (ATP), % of control 78.6; inactive.
After knock-down of Ccdc102a (coiled-coil domain containing 102A) #3 the results were GFP, % of control 136; viability (ATP), % of control 140; active.
Against Slc22a21 #1, the values are GFP, % of control 45.6; viability (ATP), % of control 53.4; inactive.
After knock-down of Slc22a21 #2 the results were GFP, % of control 57.6; viability (ATP), % of control 70.2; inactive.
With knock-down of Slc22a21 #3 the results were GFP, % of control 87.7; viability (ATP), % of control 110; inactive.
